pIC50: −log10 of the molar value. The match of structure and compound is tentative.
Assays:
[1] = target: wt human LRRK2, catalytic site (Homo sapiens, UniProt Q5S007); experiment: TR-FRET LanthaScreen Tb Kinase Activity Assay, LRRK2 kinase inhibition; details: read-out: LRRK2 IC50; 2 nM wt human LRRK2, 400 nM peptide, 38 μM ATP
Method: The compounds disclosed herein were tested for their inhibitory effect on LRRK2 kinase according to the following procedures.
The protocol for basic TR-FRET LanthaScreen Tb Kinase Activity Assay inhibitor studies is as follows. LanthaScreen Kinase Activity Assays (ThermoFisher/USA) to evaluate inhibitors were performed by addition of 100 nL of test compound in the corresponding DMSO dilutions/5 L of kinase/fluorescein-ERM(LRRKtide) peptide mixture, Compound & kinase were pre-incubated for 15 minutes, then 5 μl of ATP into 384 well small volume plates. After incubation for 120 minutes at room temperature, the detection reagents containing Tb-anti-pLRRKtide antibody were added to monitor the phosphrylation level of peptide. Then, after 60 min minutes incubation at room temperature plates were read in Envision. Data analysis of emission ratios was according to the LanthaScreen Tb Kinase Activity Assay protocol.
Kinase and assay components were adjusted to final concentrations according to the kit protocol. For LRRK2: 2 nM wt human LRRK2, catalytic site, catalytic site (ThermoFisher/USA), 400 nM peptide, 38 μM ATP in 1× Kinase Buffer A. […]
Detection step: Addition of 10 μl EDTA & antibody, read plate after 60 minutes. […]

The chains behind the UniProt entries cited, without tags or fusion partners. Residues count along the entry.
UniProt Q5S007, 1879-2138 limits assumed: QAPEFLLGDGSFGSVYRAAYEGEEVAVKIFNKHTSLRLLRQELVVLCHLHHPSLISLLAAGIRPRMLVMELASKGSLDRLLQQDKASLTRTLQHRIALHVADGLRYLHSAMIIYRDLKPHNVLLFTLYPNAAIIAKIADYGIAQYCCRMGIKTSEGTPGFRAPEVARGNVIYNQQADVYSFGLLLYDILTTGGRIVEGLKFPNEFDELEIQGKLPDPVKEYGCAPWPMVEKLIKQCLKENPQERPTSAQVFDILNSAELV

Caco-2 cells = experiment: Caco-2 bidirectional permeability
Method: The compounds disclosed herein were tested in vitro on CaCo2 cell penetration according to the following procedures.
Test compounds were prepared in dimethyl sulfoxide (DMSO).
Caco-2 cells purchased from ATCC were seeded onto […] (PET) in 96-well Corning Insert plates at 1×10^5 cells/cm^2. The media were refreshed every 4 to 5 days until the 21st to 28th day for confluent cell monolayer formation.
Experiments were run in duplicate using a HBSS transport buffer containing 10 mM HEPES at pH 7.4. The test article TEST COMPOUND was tested bi-directionally at […] concentrations, the control compound digoxin was tested bi-directionally at 10 μM, and nadolol and metoprolol were tested at 2.0 μM in the A to B direction. Final DMSO concentrations were adjusted to less than 1%. The plates were incubated for 2 hours in a CO2 incubator at 37±1° C. with 5% CO2 at saturated humidity without shaking. Following incubation, samples were mixed with acetonitrile containing internal standard and centrifuged at 3200×g for 10 minutes. Then 200 μL of supernatant was taken from all samples. […] All samples were analyzed by LC-MS/MS. Concentrations of TEST COMPOUND and control compounds were determined in starting solutions, donor well solutions, and receiver well solutions using peak area ratios (PAR) of analyte to internal standard. […]
The apparent permeability (Papp), the % recovery and the efflux ratio were calculated as follows: • 1. […] Efflux Ratio=Papp (BA)/Papp (AB) • Where: • dCr/dt is the slope of the cumulative concentration in the receiver compartment versus time (mM/s). • Vr and Vd is the volume in the receiver and donor compartments (0.075 mL on the apical side, 0.25 mL on the basolateral side), respectively. • A is the surface area of the cell monolayer (0.0804 cm^2). • C0 is the measured donor concentrations (μM) at the beginning of the experiment. • Cd and Cr are the final measured concentrations in the donor and receiver compartments, respectively. […]

human hepatocyte = experiment: Human hepatocyte stability, in vitro h-Hept CLpredict; details: human hepatocytes, predicted hepatic clearance; cells without asterisk
Method: The compounds disclosed herein were tested in vitro on human hepatocyte for in vitro h-Hept CLpredict according to the following procedures. • 1. Compound sock solutions were prepared by dissolving test compound and positive control in dimethyl sulfoxide (DMSO) at a concentration of 10 mM. Stock solutions were then diluted to 100 μM solutions by combining 198 μL of 50% acetonitrile/50% water with 2 μL of the 10 mM stock stock in separate conical tubes. • 2. Cryopreserved hepatocytes were prepared as follows: Incubation medium (William's E Medium supplemented with GlutaMAX) and hepatocyte thawing medium were placed in a 37° C. water bath and allowed to warm for at least 15 minutes prior to use. […] Cells were counted using acridine orange and propidium iodide (AO/PI) staining, and the viable cell density was determined. […]
All calculations were carried out using Microsoft Excel. Peak area ratios (PAR) were determined from extracted ion chromatograms. The in vitro half-life (t1/2) of parent compound was determined by regression analysis of the percent parent disappearance vs. time curve as follows:
The in vitro half-life (in vitro t1/2) was determined from the slope value: […]
The scaled-up intrinsic clearance (CLint, mL/min/kg), predicted hepatic clearance (CLH, mL/min/kg) and hepatic extraction ratio (ER) were calculated using the following equations: […]

SMILES: Fc1cc(N2CCOCC2)cc2c1NC(c1c(F)cccc1F)=Nc1cn[nH]c1-2
- pIC50 [1]: 7.00 to 8.70
- Caco-2 A2B (10^−6 cm/s) (Caco-2 cells; A to B, HBSS pH 7.4, 2 hours): H (H (High permeability)”: A2B (B2A)>5)
- Caco-2 B2A (10^−6 cm/s) (Caco-2 cells; B to A, HBSS pH 7.4, 2 hours): H (H (High permeability)”: A2B (B2A)>5)
- Caco-2 ER (Caco-2 cells; Efflux Ratio=Papp (BA)/Papp (AB)): N (N (Non-substrate)”: ER<2.5)
- hHep Cl (mL/min/kg) (human hepatocyte): I (I (Intermediate C1)”: 6.3 mL/min/kg≤Hep Cl≤14.7 mL/min/kg)
